Results deposited as PubChem BioAssay AID1259254 (NCATS, 2017)

- Assay: 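Gene knock-downs that lead to re-replication, shown by excess G2 DNA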 (primary screen)
- Cell system: human HCT116 colorectal cancer cells
- Knock-down reagent: single siRNA against human genes
- Time to read-out: 3 days
- Measured: 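Imaged Hoechst DNA stain sorts each cell into a cycle phase by DNA amount; per plate, G2 fraction set to 0% for non-targeting and 100% for GMNN siRNA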
- Reading the numbers: G2 robust z-score: higher = more G2 cells, more excess DNA replication
- Hit rule: 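An siRNA counts as active if its G2 robust z-score lies at least 5 MADs above the screen median; here such calls match roughly 38% of GMNN control or more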
This is an unselected part of about 59,000 reagents tested. Over the whole deposit, about 1,550 (2.6%) were called active. 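G2 share is only a proxy for re-replication; each gene was hit by three separate siRNAs, and active genes were retested.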 Unmarked entries are inactive. Further read-outs or replicates are left out here. No sequences are given here. Not given: the amount of reagent.

ZNF391 (zinc finger protein 391) [SID160764888] gave G2 robust z-score 2.38.
Against ZNF391 (zinc finger protein 391) [SID160764889] the deposit lists G2 robust z-score -0.171.
With knock-down of ZNF391 (zinc finger protein 391) [SID160764890], the screen gave G2 robust z-score -0.0249.
Against VAPA (VAMP associated protein A) [SID160721749], the entry reads G2 robust z-score 1.66.
VAPA (VAMP associated protein A) [SID160721750] scored G2 robust z-score 0.048.
With knock-down of VAPA (VAMP associated protein A) [SID160721751], the record shows G2 robust z-score 2.37.
Knock-down of GNMT (glycine N-methyltransferase) [SID160738557] resulted in: G2 robust z-score 0.655.
After knock-down of GNMT (glycine N-methyltransferase) [SID160738558], the screen gave G2 robust z-score -0.736.
Knock-down of GNMT (glycine N-methyltransferase) [SID160738559] gave: G2 robust z-score 4.72.

Ordered by “G2 robust z-score” (lowest first): 2 of the entries above
GNMT (glycine N-methyltransferase) [SID160738558] — G2 robust z-score: -0.736
GNMT (glycine N-methyltransferase) [SID160738557] — G2 robust z-score: 0.655

More records follow:
Depletion of CEP192P1 (CEP192 pseudogene 1) [SID160728016] resulted in: G2 robust z-score -0.576.
Against CEP192P1 (CEP192 pseudogene 1) [SID160728017] the deposit lists G2 robust z-score -0.0533.
For CEP192P1 (CEP192 pseudogene 1) [SID160728019] the deposit lists G2 robust z-score -1.11.
Against POLR2K (RNA polymerase II, I and III subunit K) [SID160714643] the deposit lists G2 robust z-score 1.52.
POLR2K (RNA polymerase II, I and III subunit K) [SID160714644] showed G2 robust z-score 0.126.
After knock-down of POLR2K (RNA polymerase II, I and III subunit K) [SID160714645] the results were G2 robust z-score 0.728.
ETV3L (ETS variant transcription factor 3 like) [SID160767839] showed G2 robust z-score 0.27.
After knock-down of ETV3L (ETS variant transcription factor 3 like) [SID160767841], the record shows G2 robust z-score -0.996.
Against ETV3L (ETS variant transcription factor 3 like) [SID160767842], the entry reads G2 robust z-score -0.475.
WDR77 (WD repeat domain 77) [SID160748610] gave G2 robust z-score -0.0143.
With knock-down of WDR77 (WD repeat domain 77) [SID160748611], the record shows G2 robust z-score -0.797.
After knock-down of WDR77 (WD repeat domain 77) [SID160748612], the record shows G2 robust z-score 1.23.
For GHITM (growth hormone inducible transmembrane protein) [SID160738316], the entry reads G2 robust z-score 4.15.
Against GHITM (growth hormone inducible transmembrane protein) [SID160738317] the deposit lists G2 robust z-score -0.49.
After knock-down of GHITM (growth hormone inducible transmembrane protein) [SID160738318] the results were G2 robust z-score 0.0655.
